PubChem BioAssay AID1224830 | NIAID, 2016
The whole screen tested about 18,000 reagents; shown is a random part of them. In the full data, about 2,900 (16%) are marked active. 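Calls are made per well; low scores hint the gene aids the LPS response, high scores that it dampens it.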 Unmarked entries are inactive. Reagents against one gene are numbered here. Repeated entries: four replicate wells of each siRNA pool.

- Assay: 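Host factors that control LPS-induced TNF expression in human macrophages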 (primary screen)
- Cell system: human THP-1 monocytic leukaemia cells, TNF dual-luciferase reporter clone, PMA-differentiated to macrophage-like cells
- Reagents: siRNA pool against human genes, 50 nM
- Time to read-out: LPS for 4 h, given about 3 days after siRNA transfection
- Conditions: bacterial LPS (TLR4 ligand), 10 ng/ml
- Measurement: 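TNF firefly reporter luminescence divided by renilla, normalised to the plate median, then turned into a robust z-score for each replicate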
- Scale: TNF reporter robust z-score: higher = stronger TNF reporter response to LPS
- Active means: 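Each well counts as active if its z-score is over 2.8 or under -1.5; controls are left without a call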

DDI2 (DDI proteasomal shuttling factor 2) #1
- TNF reporter robust z-score: 0.33

DDI2 (DDI proteasomal shuttling factor 2) #1
- TNF reporter robust z-score: 0.87

DDI2 (DDI proteasomal shuttling factor 2) #1
- TNF reporter robust z-score: 1.3

DDI2 (DDI proteasomal shuttling factor 2) #1
- TNF reporter robust z-score: 1.19

DDI2 (DDI proteasomal shuttling factor 2) #2
- TNF reporter robust z-score: -0.87

DDI2 (DDI proteasomal shuttling factor 2) #2
- TNF reporter robust z-score: -0.76

DDI2 (DDI proteasomal shuttling factor 2) #2
- TNF reporter robust z-score: 0.1

DDI2 (DDI proteasomal shuttling factor 2) #2
- TNF reporter robust z-score: 0.38

ELOVL2 (ELOVL fatty acid elongase 2)
- TNF reporter robust z-score: 0.95

ELOVL2 (ELOVL fatty acid elongase 2)
- TNF reporter robust z-score: 1.71

ELOVL2 (ELOVL fatty acid elongase 2)
- TNF reporter robust z-score: 0.93

ELOVL2 (ELOVL fatty acid elongase 2)
- TNF reporter robust z-score: 0.63

TBCEL (tubulin folding cofactor E like)
- TNF reporter robust z-score: 0.48

TBCEL (tubulin folding cofactor E like)
- TNF reporter robust z-score: 1.36

TBCEL (tubulin folding cofactor E like)
- TNF reporter robust z-score: 0.59

TBCEL (tubulin folding cofactor E like)
- TNF reporter robust z-score: 1.33

VPS13C (vacuolar protein sorting 13 homolog C)
- TNF reporter robust z-score: 2.14

VPS13C (vacuolar protein sorting 13 homolog C)
- TNF reporter robust z-score: 1.63

VPS13C (vacuolar protein sorting 13 homolog C)
- TNF reporter robust z-score: 1.48

VPS13C (vacuolar protein sorting 13 homolog C)
- TNF reporter robust z-score: 2.46

HYAL3 (hyaluronidase 3)
- TNF reporter robust z-score: -0.01

HYAL3 (hyaluronidase 3)
- TNF reporter robust z-score: 0.39

HYAL3 (hyaluronidase 3)
- TNF reporter robust z-score: -0.04

HYAL3 (hyaluronidase 3)
- TNF reporter robust z-score: 0.55

TEX10 (testis expressed 10)
- TNF reporter robust z-score: -0.71

TEX10 (testis expressed 10)
- TNF reporter robust z-score: -0.55

TEX10 (testis expressed 10)
- TNF reporter robust z-score: 0.01

TEX10 (testis expressed 10)
- TNF reporter robust z-score: -0.16

7 consecutive records from above:
DDI2 (DDI proteasomal shuttling factor 2) #1
- TNF reporter robust z-score: 0.87

DDI2 (DDI proteasomal shuttling factor 2) #1
- TNF reporter robust z-score: 1.3

DDI2 (DDI proteasomal shuttling factor 2) #1
- TNF reporter robust z-score: 1.19

DDI2 (DDI proteasomal shuttling factor 2) #2
- TNF reporter robust z-score: -0.87

DDI2 (DDI proteasomal shuttling factor 2) #2
- TNF reporter robust z-score: -0.76

DDI2 (DDI proteasomal shuttling factor 2) #2
- TNF reporter robust z-score: 0.1

DDI2 (DDI proteasomal shuttling factor 2) #2
- TNF reporter robust z-score: 0.38

Additional entries follow:
OR52E4 (olfactory receptor family 52 subfamily E member 4)
- TNF reporter robust z-score: -0.32

OR52E4 (olfactory receptor family 52 subfamily E member 4)
- TNF reporter robust z-score: -0.08

OR52E4 (olfactory receptor family 52 subfamily E member 4)
- TNF reporter robust z-score: -0.18

OR52E4 (olfactory receptor family 52 subfamily E member 4)
- TNF reporter robust z-score: -0.78

TRA2A (transformer 2 alpha homolog)
- TNF reporter robust z-score: 0.76

TRA2A (transformer 2 alpha homolog)
- TNF reporter robust z-score: 0.25

TRA2A (transformer 2 alpha homolog)
- TNF reporter robust z-score: 0.48

TRA2A (transformer 2 alpha homolog)
- TNF reporter robust z-score: 0.69

GBA3 (glucosylceramidase beta 3 (gene/pseudogene))
- TNF reporter robust z-score: 0.05

GBA3 (glucosylceramidase beta 3 (gene/pseudogene))
- TNF reporter robust z-score: -0.33

GBA3 (glucosylceramidase beta 3 (gene/pseudogene))
- TNF reporter robust z-score: -0.08

GBA3 (glucosylceramidase beta 3 (gene/pseudogene))
- TNF reporter robust z-score: 0.16

AMY1A (amylase alpha 1A)
- TNF reporter robust z-score: 0.3

AMY1A (amylase alpha 1A)
- TNF reporter robust z-score: 0.82

AMY1A (amylase alpha 1A)
- TNF reporter robust z-score: 0.44

AMY1A (amylase alpha 1A)
- TNF reporter robust z-score: 0.54

DSG2 (desmoglein 2)
- TNF reporter robust z-score: -1.84 (active)

DSG2 (desmoglein 2)
- TNF reporter robust z-score: -0.93

DSG2 (desmoglein 2)
- TNF reporter robust z-score: -1.75 (active)

DSG2 (desmoglein 2)
- TNF reporter robust z-score: -0.84
